# In publication PMC12040169 (PLOS Biology, 2025):
# The other results are listed elsewhere or left out.
# Tested on: T1, CTL2-GFP (C. trachomatis L2/434/Bu, GFP-expressing)
# T1 construct: L2/434/Bu, GFP-expressing
# Design: species or system HeLa; Intracellular C. trachomatis growth in HeLa cells, bulk GFP fluorescence relative to DMSO
# Conditions: bulk GFP, single well; 28.5 h, 10 µM; inhibitor
row,SMILES,% of control remaining [%]
1,COc1ccc(-c2cc(C(=O)Nc3c(C)cccc3C)n[nH]2)c(OC)c1 [CBK288114],117.192
2,CCOc1ccc(C(=O)CCNCC(=O)O)cc1 [CBK286657],116.088
3,Cc1cc(=O)n(C)c(=O)n1CCCN1CCCCC1 [CBK027584],139.215
4,CN(C)c1ncccc1OC1CCN(c2ccnc(C3CC3)n2)C1 (stereo not shown) [CBK306182],93.4412
5,Fc1ccc2c3c([nH]c2c1)C1(CCN(Cc2cc(F)c(F)c(F)c2)CC1)NCC3 [CBK039688],118.515
6,COCCN1C(=O)C2(CC(=O)N(CCNS(C)(=O)=O)C2=O)c2cc(C)ccc21 (stereo not shown) [CBK075479],104.202
7,COc1ccc(CNC(=O)C[C@@H]2[C@H](O)CCC3[C@]4(C)CO[C@@H](CN)O[C@@H]4CC[C@]32C)cc1 (stereo partly shown) [CBK289575],138.869
8,CN(C)CCCNc1ccc(C(F)(F)F)cn1 [CBK269414],155.42
9,CN1C[C@@H](NC(=O)Nc2ccccc2)C[C@H]1c1nc(-c2ccccc2)no1 [CBK288877],94.3731
10,COc1ccc(C2(CN3CCC(NC(C)=O)CC3)CCCC2)cc1 [CBK283241],135.202
11,COc1ccc(-c2cc(=O)n3cc[nH]c3n2)cc1 [CBK006659],112.676
12,CC(C)(C)OC(=O)N1Cc2ccccc2C[C@H]1C(=O)N1CCC(C(=O)O)CC1 [CBK286761],117.408
13,CN1CCN(c2ccc(C(=O)NC3CCCC3)cc2)CC1 [CBK200119],149.58
14,Cc1ccccc1OCc1nc(C#N)c(NCc2ccc3c(c2)OCO3)o1 [CBK073372],112.4
15,COc1ccc(C(=O)[C@@H]2CCCC[C@H]2N)cc1 [CBK023040C],158.427
16,CC(=O)Nc1ccc(-c2cccc(COC3CCN(C(=O)Cc4c[nH]cn4)CC3)c2)cc1 [CBK149497],124.667
17,CC(=O)Nc1ccc(S(=O)(=O)Nc2ccc(CC#N)cc2)cc1Cl [CBK044058],96.4036
18,O=C(Cn1nc(C(=O)O)c2ccccc2c1=O)c1ccc(S(=O)(=O)N2CCOCC2)cc1 [CBK296939],134.667
19,CN(Cc1ccccc1)Cc1ccccc1O [CBK261879],107.886
20,COc1ccc(Cl)cc1NC(=O)CSc1nc2cc3ccccc3cc2[nH]1 [CBK268410],67.3936
21,Cc1cc(NC(=O)CN(C)c2ncccc2C#N)no1 [CBK304182],134.265
22,Cc1ccc(C2C(C(=O)c3ccccc3)=C(O)C(=O)N2CCC(=O)O)cc1 (stereo not shown) [CBK286642],122.115
23,CCN(CC)C(=O)c1[nH]c2ccccc2c1NS(=O)(=O)Cc1ccccc1 [CBK050107],85.326
24,COc1cc(/C=C2/C(=O)N(c3ccc(Cl)c(C(=O)O)c3)N=C2C)ccc1Oc1nc2c(c(=O)n(C)c(=O)n2C)n1C [CBK262962],109.353
25,COc1ccnc(N2CCN(C(=O)c3cnn(C)c3)CC2)n1 [CBK306125],114.823
26,O=C(O)c1ccc(N2C(=O)CC(N3CCN(Cc4ccccc4)CC3)C2=O)cc1 (stereo not shown) [CBK261403],102.677
27,COC(CNC(=O)N(C)Cc1nncn1C(C)C)c1cccs1 (stereo not shown) [CBK306556],111.087

row,SMILES,% of control remaining [%]
1,CC(C)(C)OC(=O)NCCNC(=O)c1cccnc1NCc1ccc2c(c1)OCO2 [CBK160117],109.481
2,O=S(=O)(Nc1nnn[nH]1)c1ccc(-c2ccccn2)s1 [CBK062589],114.794
3,CCn1c(C)nc2cc(C(=O)NC3CCCOC3)ccc21 (stereo not shown) [CBK282066],140.573
4,O=C(O)C1C2C=CC(C2)C1C(=O)N1CCc2ccccc21 (stereo not shown) [CBK286537],126.144
5,OCCN1CCN(c2cncc(-c3cccc(OC(F)(F)F)c3)n2)CC1 [CBK065941],115.974
6,COc1ccc(Nc2cn(C)nc2C(=O)O)cc1 [CBK269814],81.656
7,N#Cc1c(N)nc(SCC(=O)O)c(C#N)c1-c1ccc(O)cc1 [CBK261270],114.133
8,O=C(O)CC1SC(N/N=C/c2ccco2)=NC1=O (stereo not shown) [CBK261371],119.482
9,O=C(c1cnc2ccccc2c1)N1CCc2ccccc21 [CBK200284],178.231
10,COc1ccc(NC(=O)CSc2nc(O)cc(-c3ccccc3)n2)cc1OC [CBK263657],128.354
11,COc1ccc(/C=C/c2nc3ccccc3s2)cc1S(=O)(=O)N1CCOCC1 [CBK269373],150.615
12,CC[C@@H](Cn1ncc2ccccc2c1=O)NC(=O)CC1c2ccccc2Oc2ccccc21 [CBK286174],143.439
13,O=C(O)CCC1=C2c3ccccc3CCN2C(=O)CC1 [CBK286945],94.8712
14,Cc1nnc(SCc2cc(=O)nc(Nc3nc(C)c4ccccc4n3)[nH]2)s1 [CBK266549],131.774
15,CC1=CC(c2ccc(Cl)cc2)n2nc(NC(=O)CCC(=O)O)nc2N1 (stereo not shown) [CBK264331],100
16,COc1ccc(C2CCN(CC(=O)NC(C)(C)C)CC2)cc1 [CBK283558],108.848
17,O=C(c1n[nH]c2c1CCCC2)N1CCc2ncc(Cl)cc2C1 [CBK284975],116.466
18,Nc1cc2cccnc2nc1-c1cc(F)cc(F)c1 [CBK067604],122.835
19,Cc1ccc(S(=O)(=O)N2CC[C@@H]3C[C@H](NC(=O)C4CC4C)[C@@H]32)cc1 (stereo partly shown) [CBK284968],143.923
20,Cc1ccc2nc(NCC(=O)O)nc(-c3ccccc3)c2c1 [CBK287002],122.475
21,COc1ccc([C@@]23CC[C@@H](NC(=O)Nc4ccc(-c5csnn5)cc4)C[C@@H]2N(C)CC3)cc1OC [CBK051163T],103.894
22,CC(=O)c1cc(C#N)c(SCC(=O)O)nc1C [CBK270189],114.252
23,O=c1c2sc(-c3ccc(F)cc3)cc2ncn1CC1(O)CCCNC1 (stereo not shown) [CBK306525],139.701
24,Cc1ccnc(NS(=O)(=O)c2ccc(NC(=O)CSc3ccc(Cl)cc3)cc2)n1 [CBK265854],152.53
25,Cc1ccn(CCNC(=O)Cc2coc3cc(C)c(C)cc23)n1 [CBK282578],74.7277
26,Cn1c(SCC(=O)n2c3c(c4ccccc42)CCCC3)nnc1-c1ccco1 [CBK267370],143.086
27,CC1(C)COC(=O)N1C1CCN(C(=O)c2cncc(Br)c2)CC1 [CBK038781],101.751

row,SMILES,% of control remaining [%]
1,COc1ccc(CSc2nnc(-c3ccco3)n2N)cc1 [CBK267548],113.239
2,Cc1cnc2c(C(=O)N3CC(C(=O)N4CCN(c5ccccc5)CC4)C3)cnn2c1 [CBK285641],135.061
3,CCc1ccc(OCC(O)Cn2nnc(-c3ccc(CN4CCC(C)CC4)cc3)n2)cc1 (stereo not shown) [CBK161437T],60.3044
4,Nc1ncnc2sc3c(c12)CCC3 [CBK097952],69.2963
5,Nc1nc(SCc2ccc(Cl)cc2)nc2sc3c(c12)CCN(Cc1ccccc1)C3 [CBK263724],94.7616
6,CC(=O)Nc1cccc(-c2cnc(N(C)S(C)(=O)=O)c(C(=O)NCc3ccc4c(c3)CCO4)c2)c1 [CBK076609],111.45
7,CC(C)CC(=O)NCCn1nc(-c2cccs2)oc1=O [CBK282342],94.5448
8,N#Cc1ccc(NCc2ccccc2CN2CCCC2CO)cn1 (stereo not shown) [CBK304077],91.0552
9,O=C(c1cnccn1)N1CCN(CCc2ccccc2)CC1 [CBK200224],114.22
10,O=C(CSc1nc[nH]n1)Nc1nsc(-c2ccc(Cl)cc2)n1 [CBK267273],99.9073
11,CCn1cc(C(=O)NC2(c3cccc(OC)c3)CCCC2)cn1 [CBK283750],133.65
12,COc1ccccc1CC(C)NC(=O)c1ccnn1C(C)C (stereo not shown) [CBK282595],119.376
13,CC(=O)NCCN1CC[C@H]2CN(C(=O)c3cc(C)on3)CC[C@H]2CC1=O [CBK288785],156.17
14,Cn1c(Cc2ccc(Cl)cc2)nnc1SCc1nc2ccccc2c(=O)n1-c1cccc(C(F)(F)F)c1 [CBK268425],96.3545
15,CC(=O)Nc1ccc(F)c(NC(=O)NCCC2CCCN2C)c1 (stereo not shown) [CBK304661],129.724
16,FC(F)(F)Oc1cccc(OCCOc2nccnc2N2CCNCC2)c1 [CBK014323G],122.806
17,NC(=O)c1cn[nH]c1C1CCCCN1Cc1cccc2c1CCOC2 (stereo not shown) [CBK304745],123.529
18,S=C(NCCc1ccccc1)NCCN1CCOCC1 [CBK264929],100
19,Cc1ccccc1NC(=O)c1ccccc1Cl [CBK116485],136.238
20,CC(C)(CO)CNc1cncc(-c2cccc(C(F)(F)F)c2)n1 [CBK065248],108.575
21,CNC(=O)c1cccc(NC(=O)c2ccc(C)nc2N2CCOCC2)c1 [CBK106223],118.609
22,Cc1ccc(S(=O)(=O)NCCc2nc3ccccc3n2C)s1 [CBK281398],103.729
23,CC(Sc1ccc(Cl)cc1)C(=O)Nc1ccc(S(=O)(=O)Nc2ccc(Cl)cc2)cc1 (stereo not shown) [CBK264805],62.1964
24,CC(=O)N1CCC(C(=O)NC(=O)NC2CCCCC2)CC1 [CBK034847],92.0185
25,Oc1nccc(Oc2ccnc(Cl)n2)n1 [CBK000010],108.844

# 3 of these compounds, set out differently:
row | SMILES | % of control remaining [%]
7 | CC(C)CC(=O)NCCn1nc(-c2cccs2)oc1=O [CBK282342] | 94.5448
8 | N#Cc1ccc(NCc2ccccc2CN2CCCC2CO)cn1 (stereo not shown) [CBK304077] | 91.0552
9 | O=C(c1cnccn1)N1CCN(CCc2ccccc2)CC1 [CBK200224] | 114.22

# As entered above.
# Entry of NC(=O)c1cn[nH]c1C1CCCCN1Cc1cccc2c1CCOC2 (stereo not shown) [CBK304745] under % of control remaining [%]: 123.529
# Entry of COc1ccc(CSc2nnc(-c3ccco3)n2N)cc1 [CBK267548] under % of control remaining [%]: 113.239
# Entry of CC(=O)NCCN1CC[C@H]2CN(C(=O)c3cc(C)on3)CC[C@H]2CC1=O [CBK288785] under % of control remaining [%]: 156.17
